# Data source: PubChem BioAssay AID1508597 (Cure First, 2020)
# Purpose: 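Knock-downs altering ovarian cancer cell survival with or without PARP inhibitor rucaparib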 (primary screen)
# Cells: human ovarian carcinoma lines grown from tumours: OCI-P5x (papillary serous) and OCI-C5x (clear cell)
# Knock-down reagent: siRNA pool against human genes, 1.25 pmol siRNA per well
# Time to read-out: 72 h or 96 h, depending on the cell culture
# Conditions: rucaparib 20 µM (about IC30) or vehicle, present until read-out
# Rucaparib or vehicle: Vehicle
# Cell line: OCI-P5x (serous)
# Read-out: 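Luminescent ATP-based viability assay read 72 or 96 h after transfection, depending on culture, given as normalised percent viability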
# Scale: viability, normalised: higher = more viable cells remaining
# Active means: 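Active when normalised viability falls below 80 percent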
# Calls: active = viability under 80%; inactive = viability 80% or more
# This is an unselected part of the about 2,100 reagents, under one of the conditions tested. 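Calls flag viability under 80% in either arm, not effects specific to rucaparib; the reference for percent is not stated.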 Entries without a mark were called inactive. Some reagents were tested in more than one well and are listed for each. The record does not give: the 100% reference.
target,technical replicate,"viability, normalised (%)"
KDM6A,1,72.7 (active)
KDM6A,2,67.3 (active)
KDM6A,3,74.9 (active)
NEK7,1,85.5
NEK7,2,66.4 (active)
NEK7,3,65.7 (active)
FOXC1,1,72.4 (active)
FOXC1,2,74.5 (active)
FOXC1,3,77 (active)
PIK3R4,1,79.2 (active)
PIK3R4,2,54.5 (active)
PIK3R4,3,52.5 (active)
LRWD1,1,67.5 (active)
LRWD1,2,71.1 (active)
LRWD1,3,69.1 (active)
UBE2B,1,94.4
UBE2B,1,68.5 (active)
UBE2B,2,85.8
UBE2B,2,74.7 (active)
UBE2B,3,73.7 (active)
UBE2B,3,107
MACROH2A1,1,55.1 (active)
MACROH2A1,2,55.1 (active)
MACROH2A1,3,59.1 (active)

Continued (8 carried over from the part before).
target,technical replicate,"viability, normalised (%)"
UBE2B,1,68.5 (active)
UBE2B,2,85.8
UBE2B,2,74.7 (active)
UBE2B,3,73.7 (active)
UBE2B,3,107
MACROH2A1,1,55.1 (active)
MACROH2A1,2,55.1 (active)
MACROH2A1,3,59.1 (active)
TOPBP1,1,61 (active)
TOPBP1,2,61 (active)
TOPBP1,3,43.4 (active)
FN3K,1,86.7
FN3K,2,103
FN3K,3,98
IL11,1,74.5 (active)
IL11,2,60.4 (active)
IL11,3,93
CLP1,1,71.4 (active)
CLP1,2,81.3
CLP1,3,74.2 (active)
WEE2,1,82.5
WEE2,1,55.7 (active)
WEE2,2,54.9 (active)
WEE2,2,94.7
WEE2,3,61.2 (active)
WEE2,3,91
PAPSS2,1,100
PAPSS2,2,84.3
PAPSS2,3,86.3
PRKY,1,63.8 (active)
PRKY,2,71.9 (active)
PRKY,3,76.5 (active)
PRDM5,1,69.1 (active)
PRDM5,2,76.3 (active)
PRDM5,3,144
MGMT,1,79.4 (active)
MGMT,1,73.8 (active)
MGMT,2,80.8
MGMT,2,72.2 (active)
MGMT,3,71.4 (active)
MGMT,3,67.1 (active)
